The other results are listed elsewhere or left out. Many values rest on one well or one pass, so single values are uncertain.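 Imaging used 1,536-well plates; nuclei positive for cleaved PARP by antibody were divided by total DNA-stained nuclei to yield the apoptosis fraction. Doses for screening kept most cells viable, and cell lines differ markedly in resting and induced cleaved-PARP levels.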
Tests used:
Assay in all cases: cleaved PARP positive nuclei fraction relative to DMSO control; melanoma cells; higher = more apoptosis
Conditions in all cases: library dose: low library concentration; 72 h
COLO792 = test system: COLO792
COLO800 = test system: COLO800
COLO829 = test system: COLO829
G361 = test system: G361
IPC-298 = test system: IPC-298
IST-MEL1 = test system: IST-MEL1
LB2518-MEL = test system: LB2518-MEL
LOXIMVI = test system: LOXIMVI
MEL-HO = test system: MEL-HO
MZ2-MEL = test system: MZ2-MEL
MeWo = test system: MeWo
RPMI7951 = test system: RPMI7951
RVH-421 = test system: RVH-421
SkMel28 = test system: SkMel28
SkMel2 = test system: SkMel2
SkMel30 = test system: SkMel30
SkMel5 = test system: SkMel5
UACC257 = test system: UACC257
UACC62 = test system: UACC62

SMILES	cleaved PARP positive nuclei fraction (COLO792) [%]	cleaved PARP positive nuclei fraction (COLO800) [%]	cleaved PARP positive nuclei fraction (COLO829) [%]	cleaved PARP positive nuclei fraction (G361) [%]	cleaved PARP positive nuclei fraction (IPC-298) [%]	cleaved PARP positive nuclei fraction (IST-MEL1) [%]	cleaved PARP positive nuclei fraction (LB2518-MEL) [%]	cleaved PARP positive nuclei fraction (LOXIMVI) [%]	cleaved PARP positive nuclei fraction (MEL-HO) [%]	cleaved PARP positive nuclei fraction (MZ2-MEL) [%]	cleaved PARP positive nuclei fraction (MeWo) [%]	cleaved PARP positive nuclei fraction (RPMI7951) [%]	cleaved PARP positive nuclei fraction (RVH-421) [%]	cleaved PARP positive nuclei fraction (SkMel28) [%]	cleaved PARP positive nuclei fraction (SkMel2) [%]	cleaved PARP positive nuclei fraction (SkMel30) [%]	cleaved PARP positive nuclei fraction (SkMel5) [%]	cleaved PARP positive nuclei fraction (UACC257) [%]	cleaved PARP positive nuclei fraction (UACC62) [%]
Cc1nc(Nc2ncc(C(=O)Nc3c(C)cccc3Cl)s2)cc(N2CCN(CCO)CC2)n1 [dasatanib] + Cc1cc(N2CCOCC2)cc2[nH]c(-c3c(NC[C@@H](O)c4cccc(Cl)c4)cc[nH]c3=O)nc12 [BMS536924] (first compound 0.004 µM, partner dose 0.2 µM)	180	287	60.3	125	159	390	327	66.6	116	346	124	88.7	105	80.1	74.6	78.1	63.2	228	306
OCc1c[nH]c2ccccc12 [Indole-3-carbinol] + O=C(CCCCCCC(=O)Nc1ccccc1)NO [vorinostat] (first compound 0.8 µM, partner dose 0.08 µM)	137	85.5	52.5	175	86.4	96.8	97.7	164	87.5	72.8	37	48.9	174	399	48.9	44.2	381	44.2	107
CC(=O)c1c(C)c2cnc(Nc3ccc(N4CCNCC4)cn3)nc2n(C2CCCC2)c1=O [palbociclib] + Cc1ccc(NC(=O)c2cccc(N(C)C)c2)cc1NC(=O)c1ccc(O)cc1 [ZM336372] (first compound 0.04 µM, partner dose 2 µM)	126	61.3	190	55.6	77.6	95.5	138	112	62	165	77.1	163	109	1170	174	196	89.3	52.6	118
Cc1cc(N2CCOCC2)cc2[nH]c(-c3c(NC[C@@H](O)c4cccc(Cl)c4)cc[nH]c3=O)nc12 + CN(NC(=O)CC(=O)NN(C)C(=S)c1ccccc1)C(=S)c1ccccc1 [STA4783] (first compound 0.2 µM, partner dose 0.006 µM)	249	244	211	143	47.5	182	144	73.4	153	93	67.8	57.5	130	197	55.1	101	90.4	130	194
Cc1cc(N2CCOCC2)cc2[nH]c(-c3c(NC[C@@H](O)c4cccc(Cl)c4)cc[nH]c3=O)nc12 + OCCn1cc(-c2cnc3nnn(Cc4ccc5ncccc5c4)c3n2)cn1 [PF04217903] (first compound 0.2 µM, partner dose 1 µM)	116	67.3	167	81.3	88.6	124	48	20.1	98.8	120	259	54.6	165	31.8	107	73	139	87.7	92.4
Cn1c(Nc2ccc(C(F)(F)F)cc2)nc2cc(Oc3ccnc(-c4ncc(C(F)(F)F)[nH]4)c3)ccc21 + OCCn1cc(-c2cnc3nnn(Cc4ccc5ncccc5c4)c3n2)cn1 [PF04217903] (first compound 0.08 µM, partner dose 1 µM)	227	68	104	38.4	117	164	299	144	96	138	89	106	107	73.1	93.7	156	79.8	210	133
COc1cc(Nc2ncc(F)c(Nc3ccc4c(n3)NC(=O)C(C)(C)O4)n2)cc(OC)c1OC [Tamatinib] + C=CCn1c(=O)c2cnc(Nc3ccc(N4CCN(C)CC4)cc3)nc2n1-c1cccc(C(C)(C)O)n1 [MK1775] (first compound 0.4 µM, partner dose 0.02 µM)	193	92.8	131	115	72.7	248	231	140	35.3	71.5	183	174	111	73.2	148	135	109	131	340
CC(C)(C)c1cnc(CSc2cnc(NC(=O)C3CCNCC3)s2)o1 + NC(=O)Nc1cc(-c2cccc(F)c2)sc1C(=O)N[C@H]1CCCNC1 [AZD7762] (first compound 0.01 µM, partner dose 0.02 µM)	136	53.5	78.6	40.7	91.5	101	196	50.6	84.6	110	138	46.8	75.6	221	139	118	60.1	62.2	85.6
Nc1cccc2c1CN(C1CCC(=O)NC1=O)C2=O (stereo not drawn) [lenalidomide] + O=C(O)c1ccc(-c2c[nH]c3ncc(-c4ccccc4)cc23)cc1C1CCCC1 [GSK650394] (first compound 1 µM, partner dose 0.16 µM)	124	92.9	118	84.5	64	140	99	105	64.5	63.4	57.7	89	46.1	52.6	60	57	172	138	105
Cc1nc(Nc2ncc(C(=O)Nc3c(C)cccc3Cl)s2)cc(N2CCN(CCO)CC2)n1 [dasatanib] + O=C(O)c1ccc(-c2c[nH]c3ncc(-c4ccccc4)cc23)cc1C1CCCC1 [GSK650394] (first compound 0.004 µM, partner dose 0.16 µM)	102	55	143	92.8	89.6	62.4	267	153	77.2	327	118	134	41.2	73.4	93.3	71.3	92.3	78.4	92.3
CC(=O)c1c(C)c2cnc(Nc3ccc(N4CCNCC4)cn3)nc2n(C2CCCC2)c1=O [palbociclib] + O=C(O)c1ccc(-c2c[nH]c3ncc(-c4ccccc4)cc23)cc1C1CCCC1 [GSK650394] (first compound 0.04 µM, partner dose 0.16 µM)	48.4	89.1	51.4	61.8	110	120	229	166	152	102	27.7	107	70.7	253	159	71.4	136	32.8	93
C=CCn1c(=O)c2cnc(Nc3ccc(N4CCN(C)CC4)cc3)nc2n1-c1cccc(C(C)(C)O)n1 + Cc1cc(N2CCOCC2)cc2[nH]c(-c3c(NC[C@@H](O)c4cccc(Cl)c4)cc[nH]c3=O)nc12 [BMS536924] (first compound 0.02 µM, partner dose 0.2 µM)	90	107	115	51.6	51.4	130	112	97.1	120	245	111	138	83.5	69.5	131	158	123	77.4	131
O=C(CCCCCCC(=O)Nc1ccccc1)NO [vorinostat] + COc1cc(Nc2ncc(F)c(Nc3ccc4c(n3)NC(=O)C(C)(C)O4)n2)cc(OC)c1OC [Tamatinib] (first compound 0.08 µM, partner dose 0.4 µM)	157	130	103	121	103	96.8	102	30.2	135	90.3	54.3	110	109	22.5	65.7	33.2	50.9	142	213
C[C@]1(c2nc3c(C(N)=O)cccc3[nH]2)CCCN1 [Veliparib] + CN(C)S(=O)(=O)c1ccc2c(c1)/C(=C/c1cc3c([nH]1)CCCC3)C(=O)N2 [SU6656] (first compound 1.4 µM, partner dose 0.4 µM)	45.1	87.8	54.5	107	46	33.3	104	198	207	95.6	54.6	51.9	49	144	101	66.7	130	38.4	124
CC(C)(C)c1cnc(CSc2cnc(NC(=O)C3CCNCC3)s2)o1 + OCCn1cc(-c2cnc3nnn(Cc4ccc5ncccc5c4)c3n2)cn1 [PF04217903] (first compound 0.01 µM, partner dose 1 µM)	108	194	37.7	17.7	44	71.2	88.8	114	68.8	237	111	108	77.9	143	127	62.4	133	65.5	26.4
COc1cc(Nc2ncc(F)c(Nc3ccc4c(n3)NC(=O)C(C)(C)O4)n2)cc(OC)c1OC [Tamatinib] + CO[C@@H]1[C@H](N(C)C(=O)c2ccccc2)C[C@H]2O[C@]1(C)n1c3ccccc3c3c4c(c5c6ccccc6n2c5c31)C(=O)NC4 [Midostaurin] (first compound 0.4 µM, partner dose 0.08 µM)	144	135	137	148	126	108	352	176	90.9	188	215	63.9	121	74.7	136	70.3	81.6	133	127
CC1(C)NC(=O)N(c2ccc([N+](=O)[O-])c(C(F)(F)F)c2)C1=O [nilutamide] + COc1cc2c(Oc3ccc4[nH]c(C)cc4c3F)ncnc2cc1OCCCN1CCCC1 [cediranib] (first compound 1 µM, partner dose 0.4 µM)	126	60.1	114	149	94.2	56.4	62.6	29.1	69.5	300	80.7	42.8	88.7	59	108	128	103	82.7	42.4

Some entries already given, reduced to cleaved PARP positive nuclei fraction (LOXIMVI) [%], cleaved PARP positive nuclei fraction (SkMel30) [%] and cleaved PARP positive nuclei fraction (MZ2-MEL) [%]:
SMILES,cleaved PARP positive nuclei fraction (LOXIMVI) [%],cleaved PARP positive nuclei fraction (SkMel30) [%],cleaved PARP positive nuclei fraction (MZ2-MEL) [%]
"Cc1nc(Nc2ncc(C(=O)Nc3c(C)cccc3Cl)s2)cc(N2CCN(CCO)CC2)n1 [dasatanib] + Cc1cc(N2CCOCC2)cc2[nH]c(-c3c(NC[C@@H](O)c4cccc(Cl)c4)cc[nH]c3=O)nc12 [BMS536924] (first compound 0.004 µM, partner dose 0.2 µM)",66.6,78.1,346
"COc1cc(Nc2ncc(F)c(Nc3ccc4c(n3)NC(=O)C(C)(C)O4)n2)cc(OC)c1OC [Tamatinib] + CO[C@@H]1[C@H](N(C)C(=O)c2ccccc2)C[C@H]2O[C@]1(C)n1c3ccccc3c3c4c(c5c6ccccc6n2c5c31)C(=O)NC4 [Midostaurin] (first compound 0.4 µM, partner dose 0.08 µM)",176,70.3,188

From the supplement of paper PMC4604168 (melanoma cell lines)
